# Source: publication PMC8412950
# Positions count from the first letter of the chain named. Results are given in words; binding and its absence hold for the method and conditions named. Binding seen in cells or lysates may run through a third protein. For part of these data: A result given as binding can be weak or reduced; the word gives no strength. Tags and fused reporters may be left off the sequences shown.
# T1: GFP::PexRD54 (Phytophthora infestans) (UniProt D0NBE6)
# T1 sequence: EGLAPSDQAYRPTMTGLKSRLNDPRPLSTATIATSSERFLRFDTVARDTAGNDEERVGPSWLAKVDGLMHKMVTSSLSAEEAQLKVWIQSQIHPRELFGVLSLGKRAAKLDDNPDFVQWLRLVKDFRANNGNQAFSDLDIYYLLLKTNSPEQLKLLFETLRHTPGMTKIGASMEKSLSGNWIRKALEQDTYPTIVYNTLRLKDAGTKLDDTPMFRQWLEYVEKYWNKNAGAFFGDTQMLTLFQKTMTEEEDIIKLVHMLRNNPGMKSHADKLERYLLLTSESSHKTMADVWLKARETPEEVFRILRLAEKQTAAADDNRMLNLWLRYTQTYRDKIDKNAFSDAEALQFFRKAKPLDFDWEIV
# T2: NRC3::4xMyc (Nicotiana benthamiana)
# T2 sequence: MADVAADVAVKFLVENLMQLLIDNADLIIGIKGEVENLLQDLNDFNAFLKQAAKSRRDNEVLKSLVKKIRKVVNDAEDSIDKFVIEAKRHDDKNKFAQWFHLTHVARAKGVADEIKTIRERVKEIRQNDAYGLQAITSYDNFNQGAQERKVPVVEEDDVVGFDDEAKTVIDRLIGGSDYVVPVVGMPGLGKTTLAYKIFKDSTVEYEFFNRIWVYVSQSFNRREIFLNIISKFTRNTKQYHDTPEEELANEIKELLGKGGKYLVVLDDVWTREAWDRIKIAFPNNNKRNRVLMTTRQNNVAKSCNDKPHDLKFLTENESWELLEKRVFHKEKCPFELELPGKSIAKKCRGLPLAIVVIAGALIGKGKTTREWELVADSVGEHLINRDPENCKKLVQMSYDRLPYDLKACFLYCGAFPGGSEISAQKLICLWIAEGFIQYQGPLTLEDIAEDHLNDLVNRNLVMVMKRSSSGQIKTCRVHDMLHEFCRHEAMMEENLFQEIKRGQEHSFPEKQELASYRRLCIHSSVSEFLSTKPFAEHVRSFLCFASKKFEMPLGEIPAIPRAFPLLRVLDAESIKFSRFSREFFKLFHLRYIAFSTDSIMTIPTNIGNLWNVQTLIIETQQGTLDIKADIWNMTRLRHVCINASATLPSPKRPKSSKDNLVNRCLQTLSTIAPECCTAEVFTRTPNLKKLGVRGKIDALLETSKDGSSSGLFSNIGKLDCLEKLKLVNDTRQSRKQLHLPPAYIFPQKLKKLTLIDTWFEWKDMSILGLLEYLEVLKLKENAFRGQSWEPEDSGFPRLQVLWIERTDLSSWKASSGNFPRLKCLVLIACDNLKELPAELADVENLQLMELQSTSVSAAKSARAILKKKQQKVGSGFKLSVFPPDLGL
# T3: NRC3^K191R::4xMyc (p-loop mutant) (Nicotiana benthamiana)
# T3 sequence: T2 sequence with K191R
# T4: NRC4^K190R::4xMyc (p-loop mutant) (Nicotiana benthamiana)
# T4 sequence: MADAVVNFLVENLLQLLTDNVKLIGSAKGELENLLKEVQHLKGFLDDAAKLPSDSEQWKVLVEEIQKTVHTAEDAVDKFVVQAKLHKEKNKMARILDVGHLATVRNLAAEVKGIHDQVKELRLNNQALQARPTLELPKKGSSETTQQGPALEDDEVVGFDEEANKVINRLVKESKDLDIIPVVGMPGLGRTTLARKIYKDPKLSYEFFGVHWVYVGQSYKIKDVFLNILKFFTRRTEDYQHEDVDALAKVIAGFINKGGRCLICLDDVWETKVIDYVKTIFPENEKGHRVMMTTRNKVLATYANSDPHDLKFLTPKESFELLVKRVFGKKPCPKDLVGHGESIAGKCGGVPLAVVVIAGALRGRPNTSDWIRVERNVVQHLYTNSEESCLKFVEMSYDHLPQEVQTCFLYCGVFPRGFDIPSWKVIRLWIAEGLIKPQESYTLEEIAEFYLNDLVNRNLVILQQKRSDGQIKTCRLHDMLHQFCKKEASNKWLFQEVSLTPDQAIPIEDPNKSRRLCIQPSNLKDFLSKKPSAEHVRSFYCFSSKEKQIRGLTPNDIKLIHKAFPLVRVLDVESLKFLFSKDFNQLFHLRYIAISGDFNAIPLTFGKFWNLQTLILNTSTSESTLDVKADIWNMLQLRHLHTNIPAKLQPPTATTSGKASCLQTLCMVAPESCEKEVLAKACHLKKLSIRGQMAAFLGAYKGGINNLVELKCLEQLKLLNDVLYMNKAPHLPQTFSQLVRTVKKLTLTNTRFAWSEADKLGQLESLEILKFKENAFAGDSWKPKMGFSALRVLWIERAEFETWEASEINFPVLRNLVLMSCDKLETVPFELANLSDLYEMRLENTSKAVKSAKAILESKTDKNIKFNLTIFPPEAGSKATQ
# B1: GFP::PexRD54 (protein, UniProt D0NBE6 20-381)
# chain: T1 sequence
# Columns and labels:
# Assay in all cases: co-IP
# [1] = biological target: T1, GFP::PexRD54 (Phytophthora infestans)
# [2] = biological target: T2, NRC3::4xMyc (Nicotiana benthamiana)
# [3] = biological target: T3, NRC3^K191R::4xMyc (p-loop mutant) (Nicotiana benthamiana)
# [4] = biological target: T4, NRC4^K190R::4xMyc (p-loop mutant) (Nicotiana benthamiana)
# [5] = biological target: NbTOL9a::6xHA (Nicotiana benthamiana)
Molecule,binding [1],binding [2],binding [3],binding [4],binding [5]
NbTOL9a::6xHA (Nicotiana benthamiana),no binding,no binding,–,–,–
4xHA::SS15 (Globodera rostochiensis),–,binds,binds,binds,–
B1,–,–,–,–,no binding
